# The whole screen tested about 340,000 compounds, of which about 170 (0.05%) were called active. The shares of active, inactive and inconclusive entries below differ from those in the screen. Calls follow the shape of the dose curve; as a rule, active = well fitted inhibition curve with a large enough effect in the signal ratio, with a control signal flat (not every such curve was filed as active); inconclusive = small, poorly fitted or top-dose-only effect, or effect the other way, or a change in a side signal; inactive = flat fitted curve, though single readings scatter; the % refers to the signal ratio. Potencies of inconclusive entries are doubtful fits and often do not repeat.
# Test: qHTS Assay to Find Inhibitors of Chronic Active B-Cell Receptor Signaling;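 as to activity change, negative = inhibition: plate controls were basal doxycycline-induced cells for no effect and cells given 10 µM MG132 for full effect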
# Details: ABC-DLBCL IkBa-CBG/CBR reporter, luminescence ratio (green luciferase fused to IkBa over red control in TMD8 lymphoma cells), 4 h; activity change, negative = inhibition: at 46.1 µM (top of the series) unless noted
# Method in brief: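 TMD8 ABC-DLBCL cells carrying doxycycline-inducible green luciferase fused to IkappaBalpha plus unfused red luciferase were exposed to compounds (up to 46 uM) for 4 hrs at 37C. Activity came from the overlap-corrected green/red luminescence ratio.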
# Potency is read from the fitted curve at half-maximal effect.
SMILES,Potency,"activity change, negative = inhibition"
CCOC(=O)c1ccc2[nH]c3ccccc3c2c1,"inconclusive: 10 µM [rising, partial curve]",
CC12CCC(C(=O)Nc3ccccc3)(C/C1=N\O)C2(C)C (stereo unspecified),"inconclusive: 11.6 µM [rising, partial curve, poor fit]",
O=C1CN=C(Nc2ccc(Cl)cc2)N1c1ccccc1,"inconclusive: 35.5 µM [falling, single point]",
COc1ccc2cc(C[C@@H]3CC[C@@H](CNC(N)=O)O3)ccc2c1,,inconclusive: -1.37%
COC(=O)C(C(=O)Nc1cccc(C)n1)C1CCCCCC1 (stereo unspecified),"inconclusive: 20 µM [rising, partial curve, poor fit]",
Cc1ccc(-c2csc3nc(CN(C)Cc4ccccc4)[nH]c(=O)c23)cc1,,inconclusive: 0.0368%
N=c1c2c(n(Cc3ccc(F)cc3)c3c1CCC3)CCC2,,inconclusive: -0.0095%
O=C(Nc1nccs1)c1cc(S(=O)(=O)N2CCOCC2)c(Cl)cc1Cl,,inconclusive: 6.01%
CCOc1ccc(NC(C(=O)Nc2cccc(C(C)=O)c2)c2ccccc2)cc1 (stereo unspecified),,inactive: 12.4%
COc1cc(NC(=S)NC(=O)c2ccccc2F)ccc1NC(=O)c1ccco1,,inconclusive: 3.56%
CCN1C(=O)/C(=C/c2cnn(C)c2C)SC1=S,,inconclusive: 3.13%
COc1ccc(C)cc1NC(=O)c1cc(S(=O)(=O)NCCC2=CCCCC2)ccc1F,,inactive: 11.6%
Cc1cc(C(C)(C)C)cc(C)c1CC1=NCCN1,"inconclusive: 6.31 µM [falling, partial curve, poor fit]",
C=CCS/C(N)=N\N=C\c1c(O)ccc2ccccc12,"inconclusive: 25.1 µM [falling, single point]",
O=C1Nc2ccccc2N(O)N1c1ccc(S(=O)(=O)Nc2ccccn2)cc1,,inactive: 4.25%
N/C(=N\OC(=O)/C=C/c1ccccc1Cl)c1ccccn1,"inconclusive: 22.4 µM [falling, partial curve]",
Cc1cc(C)c(C(=O)N2CCCC(CNC(=O)C3(c4ccc(Cl)cc4)CC3)C2)c(=O)[nH]1 (stereo unspecified),,inconclusive: -1.31%
CN(C)c1ccc(CNS(=O)(=O)c2csc(C(N)=O)c2)cc1,,inactive: 0.406%
Cc1[nH]c2ccccc2c1/C=N/NC(=S)NC(C)C,,inactive: -1.33%
CCOC(=O)Cn1nnnc1CN(Cc1cccs1)Cc1cc2cc(C)cc(C)c2[nH]c1=O,"inconclusive: 3.26 µM [falling, partial curve, poor fit]",
CCCCN(C(=O)CSc1nnc(-c2ccccc2)n1C)c1c(N)n(Cc2ccccc2)c(=O)[nH]c1=O,,inconclusive: -1.69%
COc1ccccc1N(CC(=O)NC1CCCCC1)S(=O)(=O)c1ccccc1,,inconclusive: -2.14%
CC(=O)Nc1ccc(Nc2ccc(S(=O)(=O)C(F)(F)F)cc2[N+](=O)[O-])cc1,,inactive: 5.2%
CC(=O)OC(/C(O)=C(\C#N)c1nc2ccccc2[nH]1)c1ccccc1 (stereo unspecified),,inconclusive: 7.89%
CC(C)(C)c1cc(CN2CCC(O)CC2)cc(C(C)(C)C)c1O,"inconclusive: 0.517 µM [rising, full curve, poor fit]",
Cc1cc(C)c2nc(NNC(=O)c3ccc(S(=O)(=O)N4CCCC(C)C4)cc3)sc2c1 (stereo unspecified),,inactive: 0.722%

# Laid out differently: results already given.
SMILES	Potency	activity change, negative = inhibition
Cc1cc(C)c(C(=O)N2CCCC(CNC(=O)C3(c4ccc(Cl)cc4)CC3)C2)c(=O)[nH]1 (stereo unspecified)		inconclusive: -1.31%
CN(C)c1ccc(CNS(=O)(=O)c2csc(C(N)=O)c2)cc1		inactive: 0.406%
Cc1[nH]c2ccccc2c1/C=N/NC(=S)NC(C)C		inactive: -1.33%

# Going on with the list:

SMILES,Potency,"activity change, negative = inhibition"
O=C(OCc1ccccc1Cl)c1ccc(-n2cnnc2)cc1,,inconclusive: -8.97%
Cc1ccc(C(=O)NCCSc2ccc(Cl)cc2)cc1S(=O)(=O)Nc1ccccc1,,inconclusive: 9.77%
S=C(NCC1CCCO1)Nc1ccc(Cl)c(Cl)c1 (stereo unspecified),,inconclusive: -1.03%
COC(=O)CN1C(=O)N/C(=C/c2ccccc2OC)C1=O,,inconclusive: 0.49%
CCOc1ccccc1OCCOCCN1CC(C)OC(C)C1 (stereo unspecified),,inconclusive: 7.4%
CC(C)(C)c1ccc(-n2nc(C#N)c(Cl)cc2=O)cc1,"inconclusive: 35.5 µM [rising, single point]",
COc1ccc(NC(=O)C(=O)NCCN2CCN(C(=O)c3cccc(Br)c3)CC2)cc1,,inconclusive: 1.4%
CCOC(=O)Cn1c(=O)c2c(nc(Br)n2Cc2ccc(Cl)cc2)n(C)c1=O,,inconclusive: -2.16%
COc1cccc(NC(=O)c2oc3ccc(S(=O)(=O)N4CCC5(CC4)OCCO5)cc3c2C)c1,,inconclusive: -29%
Nc1nnc(CC(=O)N/N=C/c2ccc(-c3ccc(Cl)cc3Cl)o2)s1,,inactive: -1.58%
COc1cccc(-n2c(SCc3cc(=O)oc4cc(O)c(O)cc34)nc3ccccc3c2=O)c1,,inconclusive: -17.9%
O=C1C(=O)N(c2ccc(O)cc2)C(c2ccccc2[N+](=O)[O-])/C1=C(\O)c1ccccc1 (stereo unspecified),"inconclusive: 15.8 µM [falling, single point]",
C=CCn1c(=NC(=O)c2ccccc2[N+](=O)[O-])sc2cc(S(C)(=O)=O)ccc21,,inactive: 2.4%
Cc1ccc(CCNC(=O)C2CCCN(S(=O)(=O)c3cccc4nsnc34)C2)cc1 (stereo unspecified),,inconclusive: 10.6%
Cc1ccsc1C(=O)OCC(=O)N1CC(C)CC(C)C1 (stereo unspecified),,inactive: 0.342%
CC1CCN(S(=O)(=O)c2ccc3c(ccn3CC(=O)O)c2)CC1,,inconclusive: 0.241%
CCCNC(=O)c1onc(CSc2ccc(Cl)cc2)c1C(=O)NC(C)C,,inactive: 6.87%
CCn1cnc2cc(NC(=O)c3ccc(C)cc3)ccc21,,inconclusive: -25.8%
CCc1cccc(OCCCCNCCOC)c1,,inactive: 1.32%
C#CCOCCOCCOCCNc1nc(N2CCN(C(=O)[C@H](CCCCN)n3cc(CCC(=O)O)nn3)CC2)nc(N2CCN(C(=O)[C@H](CCCCN)n3cc(CC(C)O)nn3)CC2)n1 (stereo partly specified),,inconclusive: 3.86%
CCOc1ccc(CSCCNC(=S)Nc2ccccc2)cc1,,inactive: -1.9%
C#CCN1C(=O)S/C(=C\c2cc3c(cc2OC)OCO3)C1=O,,inconclusive: 11.4%
N#C/C(=C\c1ccc([N+](=O)[O-])o1)C(=O)Nc1ccc(F)cc1,,inconclusive: -23.5%
COc1ccc(CC(=O)OCC(=O)Nc2ccc(Cl)cn2)cc1,"inconclusive: 23.1 µM [rising, single point]",
COCCNC(=O)CSc1nc2nn(-c3ccccc3)c(=O)c-2c2n1CCCCC2,,inconclusive: -3.9%

# Reference: PubChem BioAssay AID493014 (National Center for Advancing Translational Sciences (NCATS), 2011)
